Where a chain is given by its changes, count along the chain named. In names and notes the source's numbering stands. No constants are given. Whether binding was seen depends on the method and setting. Some results given as binding are weak or reduced against the parent protein; the word gives no strength.
B1: Clone 34 IgG2 (antibody)
heavy: QVQLVQSGAEVKKPGASVKVSCKASGFDIQDTYMHWVRQAPGQGLEWMGRIEPASGHIKYDPKFQGRVTMTRDTSTSTVYMELSSLRSEDTAVYYCARSGGLPDWWGQGTTVTVSSASTKGPSVFPLAPCSRSTSESTAALGCLVKDYFPEPVTVSWNSGALTSGVHTFPAVLQSSGLYSLSSVVTVPSSNFGTQTYTCNVDHKPSNTKVDKTVERKCCVECPPCPAPPVAGPSVFLFPPKPKDTLMISRTPEVTCVVVDVSHEDPEVQFNWYVDGVEVHNAKTKPREEQFNSTFRVVSVLTVVHQDWLNGKEYKCKVSNKGLPAPIEKTISKTKGQPREPQVYTLPPSREEMTKNQVSLTCLVKGFYPSDIAVEWESNGQPENNYKTTPPMLDSDGSFFLYSKLTVDKSRWQQGNVFSCSVMHEALHNHYTQKSLSLSPGK
light: EIVLTQSPGTLSLSPGERATLSCRASSSVSYMYWYQQKPGQAPRLLIYATSNLASGIPDRFSGSGSGTDFTLTISRLEPEDFAVYYCQQWEGNPRTFGGGTKLEIKRTVAAPSVFIFPPSDEQLKSGTASVVCLLNNFYPREAKVQWKVDNALQSGNSQESVTEQDSKDSTYSLSSTLTLSKADYEKHKVYACEVTHQGLSSPVTKSFNRGEC
B2: Clone 53 IgG2 (antibody)
heavy: B1 heavy with I58L, G66E, W105K
light: B1 light
B3: Clone 14 IgG2 (antibody)
heavy: B1 heavy with E52D, G66K, W105M
light: B1 light with E91Q
B4: Clone 17L IgG2 (antibody)
heavy: B1 heavy with E52D, I58L, G66V, W105M
light: B1 light with E91Q
B5: Clone 23 IgG2 (antibody)
heavy: B1 heavy with E52D, I58L, G66N, W105K
light: B1 light
B6: Clone 47 IgG2 (antibody)
heavy: B1 heavy with I58V, G66T
light: B1 light
B7: clone 1-3 Fab (Fab, V domains shown)
VH: QVQLVQSGAEVKKPGASVKLSCKASGFDIQDTYMHWVRQAPGQGLEWMGRIDPASGHTKYDPKFQVRVTMTTDTSTSTVYMELSSLRSEDTAVYYCSRSGGLPDVWGQGTTVTVSS
VL: EIVLTQSPGTLSLSPGERVTMSCRASSSVSYMYWYQQKPGQAPRPWIYATSNLASGIPDRFSGSGSGTDYTLTISRLEPEDFAVYYCQQWSGNPRTFGGGTKLEIK
B8: clone 5-2 Fab (Fab, V domains shown)
VH: B7 VH with T72R
VL: B7 VL with I57V
B9: clone 9-1 Fab (Fab, V domains shown)
VH: B7 VH with T72R
VL: B7 VL with V19A, M21L, I57V, Y70F
B10: clone 27 Fab (Fab, V domains shown)
VH: B7 VH with L20V
VL: B7 VL with V19A, M21L, W46L, I57V
B11: clone 19 Fab (Fab, V domains shown)
VH: B7 VH
VL: B7 VL with V19A, M21L, P45L, W46L
B12: clone 2-3 Fab (Fab, V domains shown)
VH: B7 VH
VL: B7 VL with V19A, M21L
B13: clone 22 Fab (Fab, V domains shown)
VH: B7 VH
VL: B7 VL with I57V, Y70F
B14: clone 7-4 Fab (Fab, V domains shown)
VH: B7 VH
VL: B7 VL with V19A, M21L, P45L, I57V
B15: clone 10-1 Fab (Fab, V domains shown)
VH: B7 VH with T72R
VL: B7 VL with V19A, M21L, P45L, W46L, I57V
B16: clone 1-4 Fab (Fab, V domains shown)
VH: B7 VH
VL: B7 VL with P45L
B17: clone 21 Fab (Fab, V domains shown)
VH: B7 VH
VL: B7 VL with V19A, M21L, P45L
B18: clone 3-4 Fab (Fab, V domains shown)
VH: B7 VH
VL: B7 VL with V19A, M21L, I57V, Y70F
B19: clone 5-1 Fab (Fab, V domains shown)
VH: B7 VH with T72R
VL: B7 VL with V19A, M21L, I57V
B20: clone 20-7 Fab (Fab, V domains shown)
VH: B7 VH with T72R, S97A
VL: B7 VL with V19A, M21L, P45L, W46L, I57V
B21: clone 13-2 Fab (Fab, V domains shown)
VH: B7 VH with T72R, S97A
VL: B7 VL with V19A, M21L, I57V
B22: clone 19-5 Fab (Fab, V domains shown)
VH: B7 VH with L20V, T72R
VL: B7 VL with V19A, M21L, P45L, W46L, I57V
B23: clone 26 Fab (Fab, V domains shown)
VH: B7 VH with L20V
VL: B7 VL with V19A, M21L, I57V
B24: clone 17-2 Fab (Fab, V domains shown)
VH: B7 VH with T72R
VL: B7 VL with V19A, M21L, P45L, W46L, I57V, Y70F
B25: clone 16-2 Fab (Fab, V domains shown)
VH: B7 VH with T72R
VL: B7 VL with V19A, M21L, P45L, W46L
B26: Clone H2-5 Fab (Fab, V domains shown)
VH: B7 VH with L20V, T58Y, V68A, M70I, T76A, V79A, M81L, E82Q, S97A, V105F
VL: B7 VL with V19A, M21L, P45L, W46L, Y70F
B27: Clone H2-2 Fab (Fab, V domains shown)
VH: B7 VH with L20V, T58S, V68A, M70I, T76A, V79A, M81L, E82Q, S97A, V105F
VL: B7 VL with V19A, M21L, P45L, W46L, Y70F
B28: Clone L3-13 Fab (Fab, V domains shown)
VH: B7 VH with L20V, V66G, V68A, M70I, T76A, V79A, M81L, E82Q, S97A, V105F
VL: B7 VL with V19A, M21L, P45L, W46L, Y70F, S91K
B29: H3-7 (V102W) Fab (Fab, V domains shown)
VH: B7 VH with L20V, T72R, S97A, V105W
VL: B7 VL with V19A, M21L, P45L, W46L, Y70F
B30: L3-4 (S92E) Fab (Fab, V domains shown)
VH: B7 VH with L20V, T72R, S97A
VL: B7 VL with V19A, M21L, P45L, W46L, Y70F, S91E
B31: L3-4 (S92H) Fab (Fab, V domains shown)
VH: B7 VH with L20V, T72R, S97A
VL: B7 VL with V19A, M21L, P45L, W46L, Y70F, S91H
B32: L3-4 (S92D) Fab (Fab, V domains shown)
VH: B7 VH with L20V, T72R, S97A
VL: B7 VL with V19A, M21L, P45L, W46L, Y70F, S91D
B33: L3-4 (S92N) Fab (Fab, V domains shown)
VH: B7 VH with L20V, T72R, S97A
VL: B7 VL with V19A, M21L, P45L, W46L, Y70F, S91N
B34: H3-7 (V102Q) Fab (Fab, V domains shown)
VH: B7 VH with L20V, T72R, S97A, V105Q
VL: B7 VL with V19A, M21L, P45L, W46L, Y70F
B35: H3-7 (V102M) Fab (Fab, V domains shown)
VH: B7 VH with L20V, T72R, S97A, V105M
VL: B7 VL with V19A, M21L, P45L, W46L, Y70F
B36: H3-7 (V102K) Fab (Fab, V domains shown)
VH: B7 VH with L20V, T72R, S97A, V105K
VL: B7 VL with V19A, M21L, P45L, W46L, Y70F
B37: L3-4 (S92Q) Fab (Fab, V domains shown)
VH: B7 VH with L20V, T72R, S97A
VL: B7 VL with V19A, M21L, P45L, W46L, Y70F, S91Q

target: T1, human TL1A (Fitzgerald, Prod. #30R-AT070) (human) (UniProt O95150); assay: ELISA on antigen coated plates and ELISA capture of soluble biotinylated antigen
T1 sequence (biotinylated with EZ-Link Sulfo-NHS-LC-Biotin where used as soluble antigen, looked up): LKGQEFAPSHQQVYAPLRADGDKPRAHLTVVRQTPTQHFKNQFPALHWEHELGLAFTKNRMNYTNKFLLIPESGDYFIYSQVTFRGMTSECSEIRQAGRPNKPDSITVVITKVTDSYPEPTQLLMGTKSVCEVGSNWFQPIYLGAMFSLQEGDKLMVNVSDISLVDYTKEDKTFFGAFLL

binding, binds:
B1
B2
B3
B4
B5
B6

target: T1, human TL1A (Fitzgerald, Prod. #30R-AT070) (human); assay: capture lift screen and Fab ELISA on immobilised antigen

binding, binds:
B7
B8
B9
B10
B11
B12
B13
B14
B15
B16
B17
B18
B19
B20
B21
B22
B23
B24
B25

target: T1, human TL1A (Fitzgerald, Prod. #30R-AT070) (human); assay: ELISA, both formats (immobilised TL1A; captured Fab with soluble biotinylated TL1A)

binding, binds:
B26
B27
B28

target: T1, human TL1A (Fitzgerald, Prod. #30R-AT070) (human); assay: ELISA

binding, binds:
B29
B30
B31
B32
B33
B34
B35
B36
B37

From patent publication US20230192835A1
